Measured values from paper PMC12242765.
These are yes or no findings as the source states them, for the method shown. In cells and extracts the contact can be indirect. A yes stands for co-enrichment or nearness to the bait. Other partners may have been found.

Amino acid sequences for entries named in this document (tags omitted).
UniProt P49739: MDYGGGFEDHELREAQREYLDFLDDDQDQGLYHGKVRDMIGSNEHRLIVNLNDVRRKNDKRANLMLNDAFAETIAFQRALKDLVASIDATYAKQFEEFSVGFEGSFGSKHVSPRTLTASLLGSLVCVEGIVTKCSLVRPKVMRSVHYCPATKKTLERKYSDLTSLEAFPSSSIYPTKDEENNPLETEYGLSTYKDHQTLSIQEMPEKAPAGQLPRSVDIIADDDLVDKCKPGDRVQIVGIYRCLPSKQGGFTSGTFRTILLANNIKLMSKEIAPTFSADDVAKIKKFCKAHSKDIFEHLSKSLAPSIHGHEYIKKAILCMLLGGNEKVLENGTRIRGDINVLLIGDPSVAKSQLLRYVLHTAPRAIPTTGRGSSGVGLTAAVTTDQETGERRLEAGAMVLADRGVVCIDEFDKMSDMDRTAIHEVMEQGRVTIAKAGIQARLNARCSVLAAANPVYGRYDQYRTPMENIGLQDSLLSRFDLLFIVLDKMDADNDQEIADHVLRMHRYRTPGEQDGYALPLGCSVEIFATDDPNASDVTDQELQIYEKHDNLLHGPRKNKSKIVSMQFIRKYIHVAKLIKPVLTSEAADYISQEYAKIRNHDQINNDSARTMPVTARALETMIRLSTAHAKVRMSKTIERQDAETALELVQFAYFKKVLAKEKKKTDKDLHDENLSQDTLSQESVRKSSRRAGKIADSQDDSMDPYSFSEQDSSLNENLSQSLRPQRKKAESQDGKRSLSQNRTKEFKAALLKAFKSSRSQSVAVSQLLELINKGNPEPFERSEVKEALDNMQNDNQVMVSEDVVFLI

Target: Mcm3 (X. laevis (endogenous in egg extract)) (UniProt P49739)
Experiment: affinity purification with mass spectrometry; Mcm3 IP from chromatin in S-phase (replisomes retained by CULi and p97i) and in mitosis (CyclinA1ΔN added); re-analysis of the authors' previously published mass spectrometry data (refs 4 and 10), peptides normalised to total Mcm2-7

Row | binding | Binder
1 | binds | TRAIP (endogenous, Xenopus egg extract, chromatin-bound) (enzyme, UniProt Q6NRV0 1-464) MPIRAYCTICSDFFDNARDVAAITCGHTFHQECLLQWFHSAPHRTCPQCRIQVSSRQIINKLFFDIGGEEETVLDAESLKNEVDRIKASLLVKEKEKRECQGLVDSLREMLDVRNVTIQSQQKELGDMEMLCSTLKKQIKFLDKQQSETKAAKDEARKLRNKLKTMESIEVLLQSQRSEVEEMIRDMGSGQAAVEQLAIYCVSLKKEYENLKEVRKSSAEMTEKLRKELFSSNHKAQKAELELTKVREELSASQKELHSADKEIMSLKKKVEFLQKTLTTPTASNEAISRLIFESPAPIGLERPKLRPPMMGNDINLDVTFDIDTPEHNTQKSVVAPFKKMKFDNKEHPLSSPTKNPLQESKGLMSWAGGRTGADEDDDLTLPSFIKNSLLHKKPVGSLLGLRQNTGAVRTGFDGLGGRTKFIQPSNLTEIRPLHQKMKRKKVSRPTACTSSLANQPRLEDFLK
2 | binds | Ctf18 (protein, UniProt Q6NU40 1-1000) MEEYDLYGVEDDFESQFASELEVLAELEDDVSSRPGPQRSQLRTKLSFEEAISAGDPIRSNANSKPTGDSNGEALACIDTSKSKKRDASCIDFEEDEFSDSIYEPPITPKHKRARIEAVKKLDFGRDEYAGNSTALSDDITPPPSPNHSPKKNERDSKFSSCEAFEVSDMAPLQVTPTESEQKRVLKRPPVLEDYINVTSTDGSRVYMALKEDNDGAQQKQGNLKWNSGQQLHLLGVPFSYLKEQVNDEHRRKVLEESQRLTEMLNSQINEEFGENDSEILENDDNAGEEDDEDEPSSHSLWVDRFTPRHYTELLSDDYTNRCLLKWLKLWDTVVFGKERVVRKPKAIVDPRANHFKNQKEQQSKFKTKAQITEEILEAELDHHNRPKNKVSLLCGPPGLGKTTLAHVIARHAGYNVVEMNASDDRSPEAFRTRIEAATQMKSVLGVDERPNCLIIDEIDGAPTVSINMLLSLVNRKDAKEAEGGTEATTGKKKKKEGGLLLRPIICICNDQYVPSLRQLRQQAFMLNFPQTMPSRLVQRLYEIAVKQGMKADTGALMALCEKTENDIRSCINTLQFLHGRGKKELNMRSVQTMRIGLKDQNKGLFSVWQEIFQLPKIQRKRIGQEVATNDLHLLLGSENDSLGMLAKPPLNAVAQRFHHILHLSTSTGEYEKLTMGLYDNFLNMKVKESNFSTVCLALDWLEFTDIVNSTIMHGQNFQLMRYLPFLPVAFHLLFAASNVPRIAYPSSHYEAQSKLNQMQNLLNAMVSEISPAIRTRVGPQSLVLDALCLLLDVLSPKLRPVNTQLFSTKEKQQLAELINTMLAYNLTYHQERTMEGQYVYKLDPNVEDVCRFPDLPVRKPLTYQTKQLIAREIELERMRRTEAFQQARNAGRDNTTAAAAVKTADPKGAKSAAKPAALNHEQRLENIMKKATFEEKPEKDFFGRQIVKKVAAPVTASANQEESVERRIGKAVGNSDVWFRFNEGVSNAVRRNIYIKDLL
3 | binds | WRN helicase (enzyme, UniProt O93530 1-1436) MTSLQRKLPEWMSVKQQEDRIDDAKKSFCKKNILEDNLPFMKFNGSIVYSYESNDCSLLSEDIRSSLLEEDVLGFDIEWPPVYTKGKTGKVALIQVCVSEKKCYLFHISPMAGFPKGLKRLLEDESVRKVGVGIEGDQWKLMSDYELKLKGFIELSEMANQKLRCKEKWTFNGLIKHLFKEQLYKRKSYRCSNWDIFLLTEDQKLYAATDAYAGLLIYKKLEGMDAHESDSFRVGREGVADCKGVKRQLTDLSKGLMDLVNQVPNSFGCYTEAVRAVDILEDLSEKLEELRNIMKEASKAEGNGLHFQNSEDCSKKDKSILHVACKESLAEHKMDCKNADSQNNKDIDSCQNENRDEDFFMTLGISEEELYMMEREDDKKQTNPDYKLNKDSCDTNEEKDMSYVIESDEDFDSEIIKSLEDLDNSTEEALGTGVPQAGLIPAKSVDTVADEEEDEGIEEEDDDDDWDPSMPEPSAQHISCLKTYFGHSSFKPVQWKVVHSVLRERRDNLVVMATGYGKSLCYQFAPVYTSGIGIVICPLISLMEDQVLQLEMSNISSCFLGSAQSKNVLQDVKDGKMRVIYMTPEFCSRGISLLQDLDNRYGITLIAIDEAHCISEWGHDFRSAYRSLGSLKRMLPNVPIVALTATASPSIREDITKSLNLHNPQVTCTSFDRPNLYLDVARKTTNISIDLRQFLIKKQQGSGWEFEGATIVYCPTRKTSEQVTAELIKLGIACGTYHAGMGIKQRREVHHRFMRDEIHCVVATVAFGMGINKPDIRKVIHYGAPKEMESYYQEIGRAGRDGLPSCCHALWAQADMNFNRHMLGEIPNKGFREYKLKMLTKMEKYLNSSTCRRKIILSHFEDKQLRKASSGIMGTEKCCDNCKTRLICNISINDTEDNLQDFGPQAYKFISAVDVLGQKFGTGVPVLFLRGSTSQRVPDRFRNHSLFSSGKDQTEAFWKVLARQLITEGYLQESSGQTKFSTICGLTSKGSNWLIKANNEQCPSLLLPSNNELCLQRTRVSNFSSAQAHSSMVPHASSNTRSSMPKAGPEKMELKDKFSYQEAERLSKAAGVSKSSFKLQTPCKLSRPPEPEVSPRERELQTTLYGRLVVARQKIASERDILPAVLATNKVLVDMAKLRPTTSENMKKLDGVSEAKSAMLAPLLEVVKEFCIANSLKVDVFSGSVSQSESTFFTPREQERISLPESQRMSYSLFQEQNLSLKKIADVRCLSMAVVGMHLWQALKAGYSFDVQRAGLTPEMKKLITYAIKKPPINSDLSSFKAIREYVPANIDGYPIRMVISLLEKEGSSGAQGQPEFPTQKTLIQTEENPKNVSVQNTKHKVTMGKSMWIEKKPTQPATAELEVTKGKALAPIMLASWNEASLDADTEELFSESQSSTTRPRRRLPEWFGSTKGNAATRCIQESKNLGEEKGSFFD
